A: 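Whole-parasite assay of Trypanosoma brucei over 72 hours; the read-out is not stated. Tested at 30 µM. The record gives no direction; compounds that gave an IC50 in retests scored well above the rest, so higher reads as stronger inhibition. Values scatter widely below zero; nearly all retest evidence comes from the higher of the two concentrations used. Of about 64,000 compounds tested this way, about 940 (1.5%) reached 50% or more in at least one test.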
B: 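Assay of Toxoplasma gondii numbers, read through their beta-galactosidase reporter with a colour substrate. Concentration: 10 µM. Higher reads as fewer parasites (inferred from which compounds were picked for retests). Of about 67,000 compounds tested this way, about 260 (0.38%) reached 50% or more in at least one test.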
C: 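Cell assay of Leishmania donovani living inside macrophages; the read-out is not stated. Concentration: 30 µM. The record gives no direction; compounds that gave an IC50 in retests scored well above the rest, so higher reads as stronger inhibition. Of about 69,000 compounds tested this way, about 1,000 (1.5%) reached 50% or more in at least one test.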

Each number is a percent effect as filed. The record does not define 0% and 100%; most values in the screen are far below 50% and negative numbers occur (in some assays of this library far below -100). Compounds were drawn at random from those tested, without regard to their results. Two or more numbers in one place are separate tests of the same structure; such repeats can differ widely. A dash means the value is not listed here; it may have been measured.

structure | A | B | C
COc1cccc(-c2ncc(CN3CCOCC(O)C3)s2)c1 (centres undefined) | -25.33 | -5.073 | 18.4
Nc1cc(C(=O)NC2CCCN(CCCc3ccccc3)C2)ccn1 (centres undefined) | -19.49 | 13.04 | -3.906
Cc1cnn(CC2CCCCN2C(=O)Cc2csc(C)n2)c1 (centres undefined) | -17.91 | -10.85 | -19.83
COc1ccccc1CC1CCN(C(=O)CCN2CCOC2=O)CC1 | 4.544 | 1.872 | 20.91
Cc1cc(C)n(C2CN(C(=O)Cn3c(=O)c(C)nc4ccccc43)C2)n1 | -18.59 | -14.36 | -13.86
[H][C@@]12CS(=O)(=O)C[C@]1([H])N(C(=O)c1ccccc1C(C)=O)CCN2CCOC | -43.77 | 14.67 | 25.63
O=C(C1CC1)N1CCC2(COCc3cnc(N4CCOCC4)nc32)C1 (centres undefined) | -19.35 | -18.7 | 1.955
Cn1c(Cn2ccnc2)nnc1C1CCCN(Cc2ccncc2)C1 (centres undefined) | -22.5 | 0.8696 | -12.61
Cc1cccc(-c2nc(C)nn2CC(=O)NC(C)C2CC2)c1 (centres undefined) | -2.773 | 3.28 | 6.162
NC(=O)N1CCCCCC1C1CCN(c2nccc(C(F)(F)F)n2)CC1 (centres undefined) | -14.21 | -14.41 | 19.39
O=C(N[C@@H]1CCNC[C@H]1O)c1ccc(O)c(Cl)c1 | 18.8 | 3.255 | 27.39
Cn1cc(CNC(=O)Nc2ccc(S(=O)(=O)C(F)F)cc2)cn1 | -32.65 | -38.51 | 7.815
CCC[C@@H]1CN(C(=O)c2ccccc2-c2ncc[nH]2)C[C@H]1N(C)C | -51.06 | -3.564 | 5.233
CCc1nnc(CN(CC)C(=O)C2CC(=O)N(Cc3cccnc3)C2)o1 (centres undefined) | -27.98 | 13.95 | 27.81
Cc1cccc(CN(Cc2ccccn2)S(=O)(=O)N(C)C(C)C)c1 | -5.582 | -0.1341 | 19.88
CSC1(CNC(=O)N(C)Cc2ccc(C)s2)CCOCC1 | -142.8 | -27.19 | -4.979
COCCNc1ccccc1CNC(=O)NCc1nc(C)c(C)s1 | -7.965 | -2.489 | 28
O=S1(=O)N(c2ccccc2)C[C@H](O)[C@]12CCNC2 | -2.876 | -20.41 | 10.62
CCn1nc(C)c(CN(CCOC)C(=O)c2ccccc2N(C)C)c1C | -15.56 | 2.934 | 2.687
O=C(Cc1c(F)cccc1F)N1CCN(CC(=O)N2CCCC2)CC1 | -14.29 | 3.485 | 20.29
O=C(CCc1ccc(Cl)s1)N1CCCC(n2cncn2)C1 (centres undefined) | -31.71 | - | 11.49
O=C(O)C(F)(F)F.O=C(O)C(F)(F)F.[H][C@@]12CCCO[C@]1([H])[C@H](N(C)Cc1ccco1)CN2Cc1ccc(F)cc1 | -21.87 | 10.47 | 17.95
[H][C@]12CC[C@@]([H])(C1)N(Cc1cc(-c3ccccc3)no1)C2 | -22.27 | -4.719 | -5.96
CSCc1cc(F)ccc1CNC(=O)N1CCOCC1 | -9.635 | 8.864 | -20.6
COc1ccc(-c2ccnc3nc(N4CCCCC4)[nH]c(=O)c23)cc1 | - | 8.955 | 8.173
CN(Cc1ccc(C(N)=O)cc1)c1ccc(C(F)(F)F)cn1 | 14.62 | -4.561 | 26.12
COc1ccc(-c2cccc(CC3(C(=O)O)CCOCC3)c2)cc1 | 4.568 | -10.07 | 4.783
CN1CCOC(CN(C(=O)COc2ccccc2)c2nccs2)C1 (centres undefined) | -2.558 | -21.2 | 22.31
O=C(O)C(F)(F)F.[H][C@@]12CCN(C(=O)c3ccc(C#N)cc3)[C@]1([H])CCC(=O)N2CCN(C)C | -45.18 | -1.33 | 2.551
Cc1cc(C)n(CC(C)Nc2nc(-c3ccncc3)nc3c2CNC3)n1 (centres undefined) | -58.42 | -22.09 | -4.403
Cc1ccc(CN(Cc2ncc[nH]2)C2CC(C)(C)NC(C)(C)C2)o1.O=C(O)CC(O)(CC(=O)O)C(=O)O | -12.64 | 18.15 | -13.61 & 28.72
NC(=O)CN(CC(=O)NCc1cc(F)cc(F)c1)C1CCCC1 | 7.536 | -11.54 | 13.83
CC(C)N(Cc1cnn(C)c1)C(=O)c1ccnc(N(C)C)c1 | 6.559 | -6.535 | 20.15
Cc1ccsc1CN(C)CCc1scnc1C | -53.64 | 4.154 | -33.89
CCC(CO)N(Cc1ccsc1)Cc1ccccc1C#N (centres undefined) | 13.77 | 24.81 | 6.697
Cn1cc(Cl)cc1C(=O)N1CCC2(CCCN(CC3CC3)C2=O)C1 (centres undefined) | -37.22 | 19.5 | -33.46
CC(C)=CCC/C(C)=C/CC(C)(C)CNCc1ccco1 | -14.67 | -11.88 | 32.05

From ChEMBL document CHEMBL3988442, “University of Dundee, Small-Polar-MMV Screening Library” (2021).